No constants are given. Whether binding was seen depends on the method and setting. Some results given as binding are weak or reduced against the parent protein; the word gives no strength.
Target: mouse HGF receptor (yeast two-hybrid constructs) (mouse) (UniProt P16056)
Test: yeast two-hybrid

Chains of the proteins cited; added tags and fusions are not shown. Residues count along the entry.
UniProt P16056, residues 1298-1379: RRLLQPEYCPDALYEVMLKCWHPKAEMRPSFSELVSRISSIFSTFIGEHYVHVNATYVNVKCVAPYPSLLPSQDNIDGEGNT

- binding: binds
B1: mouse MERMUC (yeast two-hybrid constructs) (protein)
chain: TAALFTSEILTLPPPTEAKPIFPETTSLSGILSTAGTPALATTLEGTVSTSAITESETAVAQTLTSVGTSVTVRRNPLENTSTLSIETQSHTEVLGTITVPMVAGSTMGETASFVSFTALDSSSLSVVVTTESSATSETLTTGNTTNSSFLTESHPPFSIYSTTASTSKNPNITLTKTTASPKPPTHPTTSASTAWIRKTTKHDPGEDGGFLLVRLTVASPKDLTEHNAREKLMNQLRRELHARMPLVHMSFLSIRRG
